# Reference: PubChem BioAssay AID588497 (NMMLSC, 2011)
# Hit rate of the full screen: of about 360,000 compounds, about 780 (0.22%) were called active. Inconclusive means that the source gave no clear call. Such entries were picked first, then a sample of the others. Cut-off read from the data, not from the text of the source: active = inhibition above about 35% (passing the limit was not always enough); inconclusive = no clear call, values can overlap the other calls. Where a SMILES comes first, the peptide text is derived from it. [ ]: non-standard residue; d: D form. The star is where a group is joined. ξ: configuration not given here. Cbz = O=C(OCc1ccccc1)*; ξP = O=C(O)C1CCCN1
# System: Botulinum neurotoxin type F light chain protease (Clostridium botulinum)
# Assay: BoNT/F light chain protease inhibitors, primary screen, biochemical, flow cytometry, MLPCN library (AID 588497); note: plate controls were buffer without enzyme for full effect and enzyme alone for no effect
# Conditions: Multiplex microsphere protease cleavage assay, at 10 µM, hits give high values
row,Structure (SMILES),inhibition
1,Cc1ccc(S(=O)(=O)N(CC(=O)NCc2ccncc2)C2CCCCC2)cc1,inconclusive: 20.3%
2,CC(C)NC(=O)c1ccc2c(=O)n(C3CCCC3)c(=S)[nH]c2c1,inactive: 2.5%
3,O=Cc1cnc2ccccc2c1-c1ccccc1,inconclusive: 9.4%
4,Cc1cccc(NC(=O)COC(=O)c2ccc(C)c(S(=O)(=O)N3CCCCC3)c2)c1,inconclusive: -19.3%
5,CC(=O)C1=C(O)C(=O)N(c2cccc(Br)c2)C1c1ccccc1Cl (centres undefined),inconclusive: 42.4%
6,CCN1C(=O)C(CC(=O)NCc2ccc(Cl)cc2)N(CC)C1=O (centres undefined),inactive: -1.2%
7,COC(=O)c1c(C)oc(C)c1S(=O)(=O)N1CCCCC1,inconclusive: -55.5%
8,O=C(CCCCn1c(=O)c2ccccc2n(CC(=O)NC2CCCC2)c1=O)NC1CCCC1,inactive: -13.2%
9,O=C(CCN1C(=O)/C(=C/c2ccccc2)SC1=S)NCCCN1CCOCC1,inactive: 8.9%
10,CC12CC3(C)CC(C)(C1)CC(C(=O)NC1=NCCS1)(C2)C3,inactive: -18.1%
11,Cc1cccc(-n2c(O)c(/C=N/NC(=O)c3ccncc3)c(=O)[nH]c2=O)c1,inconclusive: -80%
12,CCN(CC)c1ccc(Nc2cc3n(c(=O)n2)CCc2cc(OC)c(OC)cc2-3)cc1,inconclusive: -17.5%
13,COC(=O)CNC(=O)C1CCCN1C(=O)CNC(=O)OCc1ccccc1 (stereo not drawn) (Cbz-Gly-[ξP]-Gly-OMe),inconclusive: -27.1%
14,CCCOC1OC(=O)c2c1ccc(OC)c2OC (centres undefined),inactive: -9.3%
15,CC[n+]1c(/C=C/c2cc([N+](=O)[O-])ccc2O)ccc2ccccc21,inconclusive: -138%
16,Cc1cc(C)nc(NC(=S)Nc2cccc(F)c2)c1,inconclusive: -55.1%
17,Cc1ccc(S(=O)(=O)N(C)C)cc1NC(=O)COC(=O)CSc1ccccc1,inactive: 9.8%
18,COc1cccc(C(=O)NN2C(=S)N(c3ccccc3)C(=O)C2CC(N)=O)c1 (centres undefined),inconclusive: -82.1%
19,COc1cc(NC(=O)c2sc3ncn(CC(=O)N4CCCCC4)c(=O)c3c2C)cc(OC)c1OC,inactive: 4.4%
20,CC(=O)C1=C(C)NC(=O)NC1c1ccc2c(c1)OCO2 (centres undefined),inconclusive: -17.3%
21,COc1ccc(C(=O)CSc2nnn(-c3cccc(NC(C)=O)c3)n2)cc1,inconclusive: -48.9%
22,Oc1ccc(Cl)c2cccnc12,inactive: -6.6%
23,COc1ccc(Cn2nnnc2C(CC(C)C)N2CCN(c3ccccc3)CC2)cc1 (centres undefined),inconclusive: -7%
24,Cn1c(C(=O)N2CCN(c3ccccn3)CC2)cc2ccccc21,inconclusive: -61.1%

# In a second layout: entries from further up
row | Structure (SMILES) | inhibition
2 | CC(C)NC(=O)c1ccc2c(=O)n(C3CCCC3)c(=S)[nH]c2c1 | inactive: 2.5%
3 | O=Cc1cnc2ccccc2c1-c1ccccc1 | inconclusive: 9.4%
